{"sequences": {"note": "Amino acid sequences for entries named in this document (tags omitted). A change or cut given only in a name is not applied to a line headed by its entry.", "UniProt Q9R0Q4, whole entry": "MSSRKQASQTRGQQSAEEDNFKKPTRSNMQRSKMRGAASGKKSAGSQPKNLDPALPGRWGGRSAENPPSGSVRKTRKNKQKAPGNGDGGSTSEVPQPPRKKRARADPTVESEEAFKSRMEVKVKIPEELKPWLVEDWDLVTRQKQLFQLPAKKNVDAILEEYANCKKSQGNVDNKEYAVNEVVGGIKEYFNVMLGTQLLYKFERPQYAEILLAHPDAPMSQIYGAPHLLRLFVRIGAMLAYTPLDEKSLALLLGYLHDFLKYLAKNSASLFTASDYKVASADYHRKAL", "UniProt Q9QZW0": "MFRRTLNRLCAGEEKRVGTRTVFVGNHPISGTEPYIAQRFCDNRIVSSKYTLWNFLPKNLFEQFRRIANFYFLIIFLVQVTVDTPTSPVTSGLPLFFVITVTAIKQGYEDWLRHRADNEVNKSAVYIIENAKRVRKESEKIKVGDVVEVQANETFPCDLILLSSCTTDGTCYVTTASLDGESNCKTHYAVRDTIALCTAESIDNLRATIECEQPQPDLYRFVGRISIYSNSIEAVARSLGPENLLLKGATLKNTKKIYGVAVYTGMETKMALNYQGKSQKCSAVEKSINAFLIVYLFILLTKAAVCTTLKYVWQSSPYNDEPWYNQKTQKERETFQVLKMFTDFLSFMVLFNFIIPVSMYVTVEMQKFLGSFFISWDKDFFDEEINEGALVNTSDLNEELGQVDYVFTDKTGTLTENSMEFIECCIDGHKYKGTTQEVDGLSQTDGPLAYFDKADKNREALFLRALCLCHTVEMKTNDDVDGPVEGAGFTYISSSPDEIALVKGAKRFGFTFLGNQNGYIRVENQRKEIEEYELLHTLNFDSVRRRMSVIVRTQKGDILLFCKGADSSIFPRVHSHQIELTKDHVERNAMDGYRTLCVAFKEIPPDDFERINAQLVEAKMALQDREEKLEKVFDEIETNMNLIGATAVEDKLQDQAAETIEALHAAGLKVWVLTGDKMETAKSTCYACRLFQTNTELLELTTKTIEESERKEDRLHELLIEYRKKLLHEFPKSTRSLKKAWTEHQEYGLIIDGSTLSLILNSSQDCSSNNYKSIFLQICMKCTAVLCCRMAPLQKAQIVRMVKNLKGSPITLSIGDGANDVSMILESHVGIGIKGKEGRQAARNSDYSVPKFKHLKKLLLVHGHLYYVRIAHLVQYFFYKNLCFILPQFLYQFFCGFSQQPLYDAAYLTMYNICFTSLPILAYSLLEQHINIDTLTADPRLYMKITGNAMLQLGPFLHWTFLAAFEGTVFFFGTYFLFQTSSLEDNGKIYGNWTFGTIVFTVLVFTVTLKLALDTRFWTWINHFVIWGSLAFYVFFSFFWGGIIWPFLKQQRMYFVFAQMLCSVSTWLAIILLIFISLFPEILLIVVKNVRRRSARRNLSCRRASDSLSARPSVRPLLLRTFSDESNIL", "UniProt Q9QXG2": "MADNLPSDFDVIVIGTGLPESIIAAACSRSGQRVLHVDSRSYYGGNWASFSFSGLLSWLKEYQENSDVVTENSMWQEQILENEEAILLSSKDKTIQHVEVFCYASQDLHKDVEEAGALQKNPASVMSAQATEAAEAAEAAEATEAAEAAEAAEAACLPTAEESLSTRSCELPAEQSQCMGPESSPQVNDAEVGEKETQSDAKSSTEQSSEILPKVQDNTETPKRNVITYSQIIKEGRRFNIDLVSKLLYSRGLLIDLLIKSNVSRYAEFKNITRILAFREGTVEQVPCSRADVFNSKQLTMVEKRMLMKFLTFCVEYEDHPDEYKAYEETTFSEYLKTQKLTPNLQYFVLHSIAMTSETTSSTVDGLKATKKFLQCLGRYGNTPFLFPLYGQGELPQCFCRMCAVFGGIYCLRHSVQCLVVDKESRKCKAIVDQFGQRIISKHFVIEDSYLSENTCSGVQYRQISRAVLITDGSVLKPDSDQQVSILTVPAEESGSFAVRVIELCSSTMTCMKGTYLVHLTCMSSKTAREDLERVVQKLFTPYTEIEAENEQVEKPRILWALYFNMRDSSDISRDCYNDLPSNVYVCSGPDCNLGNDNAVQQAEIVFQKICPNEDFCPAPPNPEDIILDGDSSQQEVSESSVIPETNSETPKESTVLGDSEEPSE", "UniProt Q9R0G6": "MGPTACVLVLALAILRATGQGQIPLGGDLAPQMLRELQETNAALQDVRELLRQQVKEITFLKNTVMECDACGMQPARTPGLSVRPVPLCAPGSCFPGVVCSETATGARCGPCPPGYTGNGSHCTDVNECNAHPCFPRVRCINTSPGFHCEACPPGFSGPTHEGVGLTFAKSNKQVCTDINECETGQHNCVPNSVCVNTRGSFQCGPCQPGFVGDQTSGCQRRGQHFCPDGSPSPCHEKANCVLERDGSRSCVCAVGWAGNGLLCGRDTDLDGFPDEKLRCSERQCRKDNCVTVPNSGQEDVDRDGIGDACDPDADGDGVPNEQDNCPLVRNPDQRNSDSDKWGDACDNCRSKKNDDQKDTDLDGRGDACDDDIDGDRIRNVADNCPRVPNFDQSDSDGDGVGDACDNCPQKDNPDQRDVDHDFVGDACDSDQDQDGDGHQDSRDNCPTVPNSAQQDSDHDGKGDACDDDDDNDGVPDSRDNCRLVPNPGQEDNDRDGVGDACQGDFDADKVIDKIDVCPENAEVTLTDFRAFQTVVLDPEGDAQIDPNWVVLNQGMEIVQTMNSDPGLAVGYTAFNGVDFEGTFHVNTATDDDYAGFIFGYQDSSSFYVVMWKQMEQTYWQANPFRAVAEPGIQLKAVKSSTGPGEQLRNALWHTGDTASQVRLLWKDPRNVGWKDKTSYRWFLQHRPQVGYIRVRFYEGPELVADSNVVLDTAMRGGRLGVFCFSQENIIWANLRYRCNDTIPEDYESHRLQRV", "UniProt Q9QXS8": "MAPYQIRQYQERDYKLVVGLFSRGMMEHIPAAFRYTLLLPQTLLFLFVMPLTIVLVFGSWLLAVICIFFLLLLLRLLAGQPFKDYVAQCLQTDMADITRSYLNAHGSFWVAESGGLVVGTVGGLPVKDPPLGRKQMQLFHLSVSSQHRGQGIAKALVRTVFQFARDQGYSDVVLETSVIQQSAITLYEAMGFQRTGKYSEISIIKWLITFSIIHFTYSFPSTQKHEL", "UniProt Q9QYI6": "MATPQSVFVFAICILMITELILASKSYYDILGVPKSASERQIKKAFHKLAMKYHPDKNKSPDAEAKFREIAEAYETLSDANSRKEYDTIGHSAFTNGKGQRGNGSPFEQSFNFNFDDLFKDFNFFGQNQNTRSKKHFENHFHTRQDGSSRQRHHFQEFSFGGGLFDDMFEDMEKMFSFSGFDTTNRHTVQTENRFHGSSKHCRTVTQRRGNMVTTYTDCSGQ", "UniProt Q9QYC7": "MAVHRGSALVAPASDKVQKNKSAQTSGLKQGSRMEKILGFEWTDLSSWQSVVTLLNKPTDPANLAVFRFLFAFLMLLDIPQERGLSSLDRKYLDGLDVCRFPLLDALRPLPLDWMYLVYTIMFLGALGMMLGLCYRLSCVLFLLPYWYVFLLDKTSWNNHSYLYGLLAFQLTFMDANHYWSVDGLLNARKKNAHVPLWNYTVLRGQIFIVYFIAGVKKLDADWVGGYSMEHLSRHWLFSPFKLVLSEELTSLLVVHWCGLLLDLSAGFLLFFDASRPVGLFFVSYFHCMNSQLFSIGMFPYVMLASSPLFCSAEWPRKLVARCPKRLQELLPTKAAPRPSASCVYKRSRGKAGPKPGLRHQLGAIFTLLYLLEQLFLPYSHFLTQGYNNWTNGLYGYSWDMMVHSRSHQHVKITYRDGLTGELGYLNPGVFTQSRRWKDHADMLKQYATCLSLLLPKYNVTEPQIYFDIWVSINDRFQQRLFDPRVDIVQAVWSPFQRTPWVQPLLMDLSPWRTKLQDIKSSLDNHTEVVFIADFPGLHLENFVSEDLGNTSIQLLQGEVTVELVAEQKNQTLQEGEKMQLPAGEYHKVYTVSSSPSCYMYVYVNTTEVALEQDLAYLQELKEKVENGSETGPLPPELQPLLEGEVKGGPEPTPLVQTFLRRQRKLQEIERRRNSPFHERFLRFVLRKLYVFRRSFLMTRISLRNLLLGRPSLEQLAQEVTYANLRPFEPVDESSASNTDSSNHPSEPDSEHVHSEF", "UniProt Q9QXP6": "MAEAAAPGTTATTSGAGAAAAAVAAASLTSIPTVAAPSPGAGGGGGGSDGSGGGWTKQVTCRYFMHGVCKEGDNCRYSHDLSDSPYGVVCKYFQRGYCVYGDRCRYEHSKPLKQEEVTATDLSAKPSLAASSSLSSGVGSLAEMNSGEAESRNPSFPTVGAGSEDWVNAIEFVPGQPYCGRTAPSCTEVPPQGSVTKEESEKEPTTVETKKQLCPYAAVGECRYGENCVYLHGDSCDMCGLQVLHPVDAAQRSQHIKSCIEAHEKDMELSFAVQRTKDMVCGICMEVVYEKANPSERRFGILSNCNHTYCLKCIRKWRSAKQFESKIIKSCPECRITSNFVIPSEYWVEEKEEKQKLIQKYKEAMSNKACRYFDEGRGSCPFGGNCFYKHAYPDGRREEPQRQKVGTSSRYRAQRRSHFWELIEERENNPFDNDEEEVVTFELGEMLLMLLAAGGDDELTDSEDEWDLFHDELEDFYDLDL", "UniProt Q9QXE4": "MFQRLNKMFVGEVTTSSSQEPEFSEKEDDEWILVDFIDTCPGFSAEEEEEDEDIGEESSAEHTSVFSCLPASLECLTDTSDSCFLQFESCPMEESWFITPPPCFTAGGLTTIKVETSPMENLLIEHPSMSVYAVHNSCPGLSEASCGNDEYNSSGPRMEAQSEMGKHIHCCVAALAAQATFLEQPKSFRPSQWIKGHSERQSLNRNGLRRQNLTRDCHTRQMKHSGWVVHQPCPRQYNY", "UniProt Q9WUD1": "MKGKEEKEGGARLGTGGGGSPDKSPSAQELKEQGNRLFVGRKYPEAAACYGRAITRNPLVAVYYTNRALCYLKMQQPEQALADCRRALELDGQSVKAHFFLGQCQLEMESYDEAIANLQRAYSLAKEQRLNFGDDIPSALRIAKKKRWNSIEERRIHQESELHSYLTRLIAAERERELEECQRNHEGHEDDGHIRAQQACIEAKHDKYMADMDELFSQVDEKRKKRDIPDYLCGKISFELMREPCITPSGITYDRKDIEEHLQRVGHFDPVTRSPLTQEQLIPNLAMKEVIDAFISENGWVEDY", "UniProt Q9QXY9": "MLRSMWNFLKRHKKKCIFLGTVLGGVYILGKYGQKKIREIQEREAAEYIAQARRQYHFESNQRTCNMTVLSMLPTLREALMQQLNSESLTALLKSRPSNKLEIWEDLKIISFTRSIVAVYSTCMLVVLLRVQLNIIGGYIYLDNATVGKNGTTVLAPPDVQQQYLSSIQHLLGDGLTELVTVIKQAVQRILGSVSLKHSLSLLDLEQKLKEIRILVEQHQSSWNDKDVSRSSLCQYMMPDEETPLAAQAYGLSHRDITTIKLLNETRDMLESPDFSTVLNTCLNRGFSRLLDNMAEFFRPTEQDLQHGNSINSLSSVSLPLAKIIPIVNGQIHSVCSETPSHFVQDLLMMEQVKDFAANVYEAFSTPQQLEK", "UniProt Q9R1P3": "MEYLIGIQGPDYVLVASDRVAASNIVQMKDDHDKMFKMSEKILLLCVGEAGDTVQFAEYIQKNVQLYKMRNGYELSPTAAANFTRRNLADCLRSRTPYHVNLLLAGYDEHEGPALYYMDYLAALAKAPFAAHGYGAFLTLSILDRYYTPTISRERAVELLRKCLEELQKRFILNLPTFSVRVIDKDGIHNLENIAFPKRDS", "UniProt Q9QYK7": "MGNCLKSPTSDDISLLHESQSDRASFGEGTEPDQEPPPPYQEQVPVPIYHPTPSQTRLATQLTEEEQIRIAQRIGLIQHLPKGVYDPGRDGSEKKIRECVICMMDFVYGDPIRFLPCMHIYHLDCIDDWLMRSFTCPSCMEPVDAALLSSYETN", "UniProt Q9QYY0": "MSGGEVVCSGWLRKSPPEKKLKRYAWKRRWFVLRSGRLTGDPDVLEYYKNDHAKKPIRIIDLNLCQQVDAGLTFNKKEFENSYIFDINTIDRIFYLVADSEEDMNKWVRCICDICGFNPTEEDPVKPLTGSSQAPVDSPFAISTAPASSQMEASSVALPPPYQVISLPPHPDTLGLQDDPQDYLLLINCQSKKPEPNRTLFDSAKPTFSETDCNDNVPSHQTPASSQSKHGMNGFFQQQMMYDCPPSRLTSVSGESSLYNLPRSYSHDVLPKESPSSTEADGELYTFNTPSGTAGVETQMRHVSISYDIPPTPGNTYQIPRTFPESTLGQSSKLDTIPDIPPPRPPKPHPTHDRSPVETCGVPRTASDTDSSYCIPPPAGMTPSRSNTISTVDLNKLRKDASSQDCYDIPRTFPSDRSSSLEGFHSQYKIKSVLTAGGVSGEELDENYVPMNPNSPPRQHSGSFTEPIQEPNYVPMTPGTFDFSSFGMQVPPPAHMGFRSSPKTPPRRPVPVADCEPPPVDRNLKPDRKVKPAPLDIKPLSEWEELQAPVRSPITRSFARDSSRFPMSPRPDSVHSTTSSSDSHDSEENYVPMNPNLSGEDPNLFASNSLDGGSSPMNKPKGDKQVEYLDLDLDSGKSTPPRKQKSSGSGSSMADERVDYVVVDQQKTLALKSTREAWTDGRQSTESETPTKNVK"}, "source": "the supplement of paper PMC12819154", "about": "“High-throughput peptide-centric local stability assay extends protein–ligand identification to membrane proteins, tissues and bacteria” (Nature Structural & Molecular Biology, 2025)", "note": "Some of the results follow. Most values lie at the level of the controls, where differences are scatter.", "data": [{"compound": "CN[C@@H]1C[C@H]2O[C@@](C)([C@@H]1OC)n1c3ccccc3c3c4c(c5c6ccccc6n2c5c31)C(=O)NC4 [staurosporine]", "experiment": "log2 fold change of tryptic peptide abundance, ligand vs vehicle (limited proteolysis) (log2 ratio); higher = more trypsin-susceptible (destabilized)", "settings": "ligand concentration: 20 uM; sample: mouse liver crude lysate; replicate design: treated separately", "values": [{"target": "UniProt Q9QXZ0 (peptide sequence: QVLDGGIIHHISGLR, peptide start residue: 2491)", "log2 fold change": -0.393}, {"target": "UniProt Q9QYB8 (peptide sequence: QDFNLMEQK, peptide start residue: 43)", "log2 fold change": 0.234}, {"target": "UniProt Q9R0Q4 (peptide sequence: ARADPTVESEEAFK, peptide start residue: 103)", "log2 fold change": -0.491}, {"target": "UniProt Q9R1P0 (peptide sequence: LSAEKVEIATLTR, peptide start residue: 206)", "log2 fold change": -0.185}, {"target": "UniProt Q9QYR6 (peptide sequence: SSRPDTLLSSEQRPGK, peptide start residue: 2378)", "log2 fold change": -0.089}, {"target": "UniProt Q9QXF8 (peptide sequence: NIASMVRPGGLLVIDHR, peptide start residue: 160)", "log2 fold change": 0.194}, {"target": "UniProt Q9QZW0 (peptide sequence: NSDYSVPK, peptide start residue: 844)", "log2 fold change": -0.947}, {"target": "UniProt Q9QZJ6 (peptide sequence: LVCKEHEAMKDELCR, peptide start residue: 118)", "log2 fold change": 0.345}, {"target": "UniProt Q9QYG0 (peptide sequence: SCFQPLFR, peptide start residue: 77)", "log2 fold change": 0.0662}, {"target": "UniProt Q9QXG2 (peptide sequence: NVITYSQIIK, peptide start residue: 225)", "log2 fold change": -0.559}, {"target": "UniProt Q9R0E2 (peptide sequence: VGEDYEGGGCR, peptide start residue: 672)", "log2 fold change": 0.389}, {"target": "UniProt Q9QXK7 (peptide sequence: LTGDVEELEIQEKPALK, peptide start residue: 533)", "log2 fold change": -0.299}, {"target": "UniProt Q9QZM2 (peptide sequence: EMMHISK, peptide start residue: 438)", "log2 fold change": 0.14}, {"target": "UniProt Q9R0G6 (peptide sequence: AVAEPGIQLK, peptide start residue: 830)", "log2 fold change": -0.118}, {"target": "UniProt Q9WU60 (peptide sequence: KQQPPAQPGTCI, peptide start residue: 1417)", "log2 fold change": -0.0915}, {"target": "UniProt Q9WTK2 (peptide sequence: ALVVGKDHESK, peptide start residue: 147)", "log2 fold change": -0.778}, {"target": "UniProt Q9QXS8 (peptide sequence: LVVGLFSR, peptide start residue: 16)", "log2 fold change": -0.118}, {"target": "UniProt Q9R1E0 (peptide sequence: TLPHVVNTMPHTSAMNR, peptide start residue: 535)", "log2 fold change": 0.243}, {"target": "UniProt Q9QYI6 (peptide sequence: KEYDTIGHSAFTNGK, peptide start residue: 84)", "log2 fold change": 0.0396}, {"target": "UniProt Q9QYC7 (peptide sequence: AAPRPSASCVYKR, peptide start residue: 335)", "log2 fold change": -0.322}, {"target": "UniProt Q9QXP6 (peptide sequence: FGILSNCNHTYCLK, peptide start residue: 299)", "log2 fold change": 0.273}, {"target": "UniProt Q9QXE4 (peptide sequence: MEAQSEMGK, peptide start residue: 158)", "log2 fold change": -0.172}, {"target": "UniProt Q9WUE4 (peptide sequence: TGMSYHELDER, peptide start residue: 358)", "log2 fold change": -0.146}, {"target": "UniProt Q9WUD1 (peptide sequence: DIEEHLQR, peptide start residue: 257)", "log2 fold change": 0.194}, {"target": "UniProt Q9WV95 (peptide sequence: AVECVESTGR, peptide start residue: 58)", "log2 fold change": -0.565}, {"target": "UniProt Q9QXY9 (peptide sequence: RQYHFESNQR, peptide start residue: 54)", "log2 fold change": 0.0884}, {"target": "UniProt Q9WU42 (peptide sequence: EGTPPPPPPPR, peptide start residue: 1348)", "log2 fold change": -0.627}, {"target": "UniProt Q9WUL7 (peptide sequence: SVQSQGFK, peptide start residue: 55)", "log2 fold change": -0.178}, {"target": "UniProt Q9WUA2 (peptide sequence: SSTFPELPYRK, peptide start residue: 296)", "log2 fold change": -0.337}, {"target": "UniProt Q9QXW2 (peptide sequence: VFDLGGDTEEEATDPGLHTSGSDHVK, peptide start residue: 279)", "log2 fold change": 0.188}, {"target": "UniProt Q9R1P3 (peptide sequence: VIDKDGIHNLENIAFPKR, peptide start residue: 182)", "log2 fold change": -0.342}, {"target": "UniProt Q9R1W5 (peptide sequence: IQFGNGFSHSDALR, peptide start residue: 403)", "log2 fold change": 0.236}, {"target": "UniProt Q9WUK2 (peptide sequence: SLRVDIAEGR, peptide start residue: 110)", "log2 fold change": 0.284}, {"target": "UniProt Q9QYK7 (peptide sequence: IGLIQHLPK, peptide start residue: 74)", "log2 fold change": 0.176}, {"target": "UniProt Q9QXV1 (peptide sequence: LLAAFEER, peptide start residue: 53)", "log2 fold change": 0.187}, {"target": "UniProt Q9QXP7 (peptide sequence: QGEDLPTSR, peptide start residue: 64)", "log2 fold change": -0.051}, {"target": "UniProt Q9QYY0 (peptide sequence: SPVETCGVPR, peptide start residue: 355)", "log2 fold change": 0.23}, {"target": "UniProt Q9WV85 (peptide sequence: EHYVELR, peptide start residue: 67)", "log2 fold change": 0.0261}, {"target": "UniProt Q9WTX2 (peptide sequence: LESFMETGKGASK, peptide start residue: 165)", "log2 fold change": -0.302}, {"target": "UniProt Q9R0C0 (peptide sequence: AVEHLVGGLLSHYLPDLQR, peptide start residue: 48)", "log2 fold change": -0.417}]}]}
